Test results from patent US20020150567A1 (University of California, published 2002).
Results are given in words; binding and its absence hold for the method and conditions named. In cells and extracts the contact can be indirect. Some binding calls cover weakened binding; strength is not graded here.

The chains behind the UniProt entries cited, without tags or fusion partners. Where a name states a change or a piece, a line headed by the entry shows the natural chain unless it says otherwise.
UniProt Q92835: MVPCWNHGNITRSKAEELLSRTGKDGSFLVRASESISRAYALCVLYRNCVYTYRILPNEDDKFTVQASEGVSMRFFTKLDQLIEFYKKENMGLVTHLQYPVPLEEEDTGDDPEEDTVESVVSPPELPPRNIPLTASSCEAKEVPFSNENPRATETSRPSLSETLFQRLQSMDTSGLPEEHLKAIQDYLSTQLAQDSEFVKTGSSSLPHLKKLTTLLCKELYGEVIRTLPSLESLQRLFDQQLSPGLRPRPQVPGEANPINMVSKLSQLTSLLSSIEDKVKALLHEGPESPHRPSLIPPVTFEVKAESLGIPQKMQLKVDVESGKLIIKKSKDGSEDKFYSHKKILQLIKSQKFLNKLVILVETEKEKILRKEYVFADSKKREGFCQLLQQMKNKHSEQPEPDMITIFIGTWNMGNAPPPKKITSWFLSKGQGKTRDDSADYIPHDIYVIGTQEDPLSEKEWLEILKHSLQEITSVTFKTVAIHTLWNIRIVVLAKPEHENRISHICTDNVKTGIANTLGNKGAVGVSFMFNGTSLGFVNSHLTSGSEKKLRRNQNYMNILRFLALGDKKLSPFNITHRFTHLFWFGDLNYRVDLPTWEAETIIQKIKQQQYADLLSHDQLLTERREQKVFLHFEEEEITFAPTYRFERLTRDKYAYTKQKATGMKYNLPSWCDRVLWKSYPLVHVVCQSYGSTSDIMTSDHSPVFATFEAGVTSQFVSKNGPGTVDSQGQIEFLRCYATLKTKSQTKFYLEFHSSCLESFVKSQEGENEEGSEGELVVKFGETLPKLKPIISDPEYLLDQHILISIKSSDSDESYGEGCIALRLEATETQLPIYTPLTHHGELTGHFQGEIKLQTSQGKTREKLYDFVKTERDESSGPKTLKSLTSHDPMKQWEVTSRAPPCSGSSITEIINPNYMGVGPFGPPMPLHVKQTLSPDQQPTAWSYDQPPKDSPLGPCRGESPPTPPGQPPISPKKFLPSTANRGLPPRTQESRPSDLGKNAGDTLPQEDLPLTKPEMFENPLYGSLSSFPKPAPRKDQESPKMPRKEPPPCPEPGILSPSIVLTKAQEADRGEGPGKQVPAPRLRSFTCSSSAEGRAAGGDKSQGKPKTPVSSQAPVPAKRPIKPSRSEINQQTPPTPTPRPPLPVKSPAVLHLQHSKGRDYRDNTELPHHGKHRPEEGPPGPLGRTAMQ

Biological target: T1, full length GA5Ptase (human) (UniProt Q92835)
T1 sequence: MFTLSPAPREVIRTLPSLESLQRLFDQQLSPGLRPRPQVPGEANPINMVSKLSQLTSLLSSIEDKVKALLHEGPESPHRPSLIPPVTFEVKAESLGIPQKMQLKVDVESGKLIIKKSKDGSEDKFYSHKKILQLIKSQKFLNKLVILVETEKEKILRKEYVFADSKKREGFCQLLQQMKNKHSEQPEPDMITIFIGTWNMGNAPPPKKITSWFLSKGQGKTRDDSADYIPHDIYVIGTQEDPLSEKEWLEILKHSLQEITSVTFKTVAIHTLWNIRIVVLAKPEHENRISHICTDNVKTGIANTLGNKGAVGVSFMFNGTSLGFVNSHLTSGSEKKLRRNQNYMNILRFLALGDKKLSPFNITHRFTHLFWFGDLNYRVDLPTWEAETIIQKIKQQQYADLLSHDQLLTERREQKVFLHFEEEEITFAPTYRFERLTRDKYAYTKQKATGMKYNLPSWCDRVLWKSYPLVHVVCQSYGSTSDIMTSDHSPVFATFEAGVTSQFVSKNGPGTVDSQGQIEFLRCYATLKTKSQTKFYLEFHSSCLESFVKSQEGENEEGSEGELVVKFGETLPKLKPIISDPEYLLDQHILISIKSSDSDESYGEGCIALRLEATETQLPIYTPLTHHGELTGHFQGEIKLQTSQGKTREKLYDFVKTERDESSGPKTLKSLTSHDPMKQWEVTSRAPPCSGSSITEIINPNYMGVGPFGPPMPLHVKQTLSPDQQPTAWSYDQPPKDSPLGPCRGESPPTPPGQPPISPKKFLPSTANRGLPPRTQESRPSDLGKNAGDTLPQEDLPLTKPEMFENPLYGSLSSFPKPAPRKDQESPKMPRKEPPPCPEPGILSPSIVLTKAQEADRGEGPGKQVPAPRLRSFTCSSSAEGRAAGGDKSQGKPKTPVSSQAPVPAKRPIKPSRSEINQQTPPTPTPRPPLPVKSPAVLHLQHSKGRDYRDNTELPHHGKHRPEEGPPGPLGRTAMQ
Assay: co-immunoprecipitation from transfected Cos7 cells (myc 9E10 / HA 12CA5 antibodies)

Substance	binding
GRB3.3 (from UniProt P62993 1-176)	binds
wild type GRB2 (from UniProt P62993 1-217)	binds
